These are yes or no findings as the source states them, for the method shown. Binding seen in cells or lysates may run through a third protein. Some entries that bind do so weakly or less than the wild type. Each block holds one substance with its values, some of them ahead of it.
Key:
[1] = biological target: synaptotagmin-7 (not stated (rat neuronal cultures are named for the GSI treatment in p-0014; cultures from mice were also used)) (UniProt Q62747); assay: co-IP; lysates of cultured cortical neurons (50 mM Hepes pH 7.4, 100 mM NaCl, 10% glycerol, 0.5% DDM), 600-1000 µg lysate; IP with an antibody against Syt7, magnetic beads, western blot with Y188; neurons treated or not with GSI (L685,458) from 10 to 14 DIV and with or without 30 mM KCl for 15 min before lysis (Syt7/CTFs interaction decreased by KCl)
[2] = biological target: synaptotagmin-7 (mouse (endogenous in adult brain synaptosomes)) (UniProt Q9R0N7); assay: co-IP; synaptosomal fraction from whole brains of adult mice, resuspended in lysis buffer; IP of Syt7 or IP of APP, western blot; control: beads + immuno-precipitating antibody without sample
[3] = biological target: amyloid precursor protein, full length (mouse (endogenous in adult brain synaptosomes)) (UniProt P12023); assay: as above

Amino acid sequences for entries named in this document (tags omitted). Residues count along the entry.
UniProt Q62747: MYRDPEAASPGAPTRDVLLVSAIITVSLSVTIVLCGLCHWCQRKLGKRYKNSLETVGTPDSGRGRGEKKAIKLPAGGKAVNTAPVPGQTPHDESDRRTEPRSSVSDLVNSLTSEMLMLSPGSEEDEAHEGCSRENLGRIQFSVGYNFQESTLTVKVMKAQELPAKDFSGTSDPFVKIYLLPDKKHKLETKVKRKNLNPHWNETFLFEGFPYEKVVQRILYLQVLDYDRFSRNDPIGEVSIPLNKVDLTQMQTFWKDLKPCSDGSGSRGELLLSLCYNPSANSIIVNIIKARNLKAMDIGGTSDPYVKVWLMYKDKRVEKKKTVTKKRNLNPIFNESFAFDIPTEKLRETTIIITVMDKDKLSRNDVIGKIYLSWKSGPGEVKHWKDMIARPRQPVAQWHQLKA
UniProt Q9R0N7: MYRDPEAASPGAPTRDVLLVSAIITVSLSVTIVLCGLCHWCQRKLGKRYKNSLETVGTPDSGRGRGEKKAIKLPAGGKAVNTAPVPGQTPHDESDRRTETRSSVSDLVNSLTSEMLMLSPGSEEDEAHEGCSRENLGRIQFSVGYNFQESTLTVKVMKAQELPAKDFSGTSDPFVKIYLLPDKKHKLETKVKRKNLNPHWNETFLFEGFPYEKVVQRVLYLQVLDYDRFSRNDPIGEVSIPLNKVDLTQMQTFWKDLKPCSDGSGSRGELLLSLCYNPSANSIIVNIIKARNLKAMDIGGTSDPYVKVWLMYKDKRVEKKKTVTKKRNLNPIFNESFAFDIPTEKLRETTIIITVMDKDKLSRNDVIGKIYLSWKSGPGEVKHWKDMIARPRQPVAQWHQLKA
UniProt P12023, residues 18-770: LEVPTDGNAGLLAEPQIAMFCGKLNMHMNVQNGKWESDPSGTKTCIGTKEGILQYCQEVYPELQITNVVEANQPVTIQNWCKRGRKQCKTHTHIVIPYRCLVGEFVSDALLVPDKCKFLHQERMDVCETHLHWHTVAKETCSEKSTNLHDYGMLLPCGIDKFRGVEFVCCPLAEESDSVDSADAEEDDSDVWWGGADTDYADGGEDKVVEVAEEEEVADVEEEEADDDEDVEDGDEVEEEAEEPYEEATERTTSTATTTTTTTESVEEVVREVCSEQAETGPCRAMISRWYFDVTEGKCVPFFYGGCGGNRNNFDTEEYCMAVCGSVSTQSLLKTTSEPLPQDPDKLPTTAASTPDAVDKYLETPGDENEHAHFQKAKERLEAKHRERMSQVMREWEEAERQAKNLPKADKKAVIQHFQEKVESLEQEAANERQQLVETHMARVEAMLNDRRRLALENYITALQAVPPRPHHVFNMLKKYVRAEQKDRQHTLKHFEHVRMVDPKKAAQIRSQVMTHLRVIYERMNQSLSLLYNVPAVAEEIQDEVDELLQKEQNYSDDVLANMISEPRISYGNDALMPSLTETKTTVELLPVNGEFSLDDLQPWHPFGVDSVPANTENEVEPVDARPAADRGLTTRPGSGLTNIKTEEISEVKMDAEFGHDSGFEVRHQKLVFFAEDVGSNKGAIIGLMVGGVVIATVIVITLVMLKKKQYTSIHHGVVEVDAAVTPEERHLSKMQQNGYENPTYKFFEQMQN
UniProt P08592, residues 18-770: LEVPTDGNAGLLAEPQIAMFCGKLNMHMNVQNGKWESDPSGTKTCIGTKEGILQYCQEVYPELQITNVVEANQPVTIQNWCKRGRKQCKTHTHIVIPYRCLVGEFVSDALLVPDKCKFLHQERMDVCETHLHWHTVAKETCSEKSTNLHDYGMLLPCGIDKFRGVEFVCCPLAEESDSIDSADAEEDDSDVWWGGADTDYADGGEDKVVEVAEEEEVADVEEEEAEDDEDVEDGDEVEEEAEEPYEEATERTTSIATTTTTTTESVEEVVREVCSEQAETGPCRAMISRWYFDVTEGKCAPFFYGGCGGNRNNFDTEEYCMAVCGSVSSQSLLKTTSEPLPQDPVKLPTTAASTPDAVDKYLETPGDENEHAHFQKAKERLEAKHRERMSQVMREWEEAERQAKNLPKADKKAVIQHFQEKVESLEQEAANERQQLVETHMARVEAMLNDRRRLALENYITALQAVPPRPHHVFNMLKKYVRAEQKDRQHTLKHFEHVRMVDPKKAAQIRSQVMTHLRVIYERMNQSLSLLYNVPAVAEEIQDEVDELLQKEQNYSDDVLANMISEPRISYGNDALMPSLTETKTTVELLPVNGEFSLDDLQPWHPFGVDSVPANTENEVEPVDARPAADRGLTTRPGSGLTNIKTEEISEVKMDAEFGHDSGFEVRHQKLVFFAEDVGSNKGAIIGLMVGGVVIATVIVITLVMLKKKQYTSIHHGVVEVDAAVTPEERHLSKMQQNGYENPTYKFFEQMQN

binding [1]: binds
Substance: amyloid precursor protein, full length (from UniProt P08592 18-770)

binding [2]: binds
Substance: amyloid precursor protein, full length (from UniProt P12023 18-770)

binding [3]: binds
Substance: synaptotagmin-7 (from UniProt Q9R0N7 1-403)

Source: paper PMC6235831
